Taken from: PubChem BioAssay AID1259254 (NCATS, 2017)

Test: 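Gene knock-downs that lead to re-replication, shown by excess G2 DNA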 (primary screen)
System: human HCT116 colorectal cancer cells
Reagent: single siRNA against human genes
Time to read-out: 3 days
Read-out: 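Imaged Hoechst DNA stain sorts each cell into a cycle phase by DNA amount; per plate, G2 fraction set to 0% for non-targeting and 100% for GMNN siRNA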
Scale: G2 robust z-score: higher = more G2 cells, more excess DNA replication
Rule for the call: 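An siRNA counts as active if its G2 robust z-score lies at least 5 MADs above the screen median; here such calls match roughly 38% of GMNN control or more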
The whole screen tested about 59,000 reagents; shown is a random part of them. About 1,550 of all reagents (2.6%) count as active. 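G2 share is only a proxy for re-replication; each gene was hit by three separate siRNAs, and active genes were retested.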 Entries without a mark were called inactive. Reagents against one gene are numbered here. Not all columns of the deposit are shown. The record does not give: the amount of reagent.

The opening 10 entries, to show the layout:
no.	gene symbol	reagent no.	G2 robust z-score
1	ZNF415	1	0.296
2	ZNF415	2	-1.05
3	ZNF415	3	-0.225
4	PODNL1	1	-0.614
5	PODNL1	2	0.931
6	PODNL1	3	0.295
7	L3MBTL3	1	-1.26
8	L3MBTL3	2	-0.0668
9	L3MBTL3	3	-0.216
10	MB	1	-1.21

Results, from the first entry:
no.	gene symbol	reagent no.	G2 robust z-score
1	ZNF415	1	0.296
2	ZNF415	2	-1.05
3	ZNF415	3	-0.225
4	PODNL1	1	-0.614
5	PODNL1	2	0.931
6	PODNL1	3	0.295
7	L3MBTL3	1	-1.26
8	L3MBTL3	2	-0.0668
9	L3MBTL3	3	-0.216
10	MB	1	-1.21
11	MB	2	-0.393
12	MB	3	-0.0807
13	LCN15	1	2.4
14	LCN15	2	0.198
15	LCN15	3	-1.05
16	RSPH1	1	-0.823
17	RSPH1	2	-0.401
18	RSPH1	3	-0.377
19	COL6A6	1	1.07
20	COL6A6	2	0.739
21	COL6A6	3	-0.519
22	LY6G5B	1	-0.608
23	LY6G5B	2	1.54
24	LY6G5B	3	2.34
25	PLSCR2	1	-0.769
26	PLSCR2	2	0.0592
27	PLSCR2	3	-0.142
28	TNFRSF10A-DT	1	-0.513
29	TNFRSF10A-DT	2	0.338
30	TNFRSF10A-DT	3	-0.334
31	ZNF529	1	-0.479
32	ZNF529	2	0.195
33	ZNF529	3	0.00944
34	GPRASP2	1	1.43
35	GPRASP2	2	0.58
36	GPRASP2	3	0.535
37	CPSF4L	1	0.0352
38	CPSF4L	2	0.751
39	CPSF4L	3	0.0688
40	RGPD3	1	-0.156
41	RGPD3	2	-0.147
42	RGPD3	3	-0.928
43	OR11H4	1	-0.952
44	OR11H4	2	1.54
45	OR11H4	3	2.17
46	SMTNL2	1	-0.962
47	SMTNL2	2	0.841
48	SMTNL2	3	1.58
49	EXOC8	1	-0.553
50	EXOC8	2	0.375
51	EXOC8	3	0.98
52	CSNK1A1	1	-0.323
53	CSNK1A1	2	-0.198
54	CSNK1A1	3	0.986
55	CA7	1	-0.171
56	CA7	2	0.117
57	CA7	3	-1.68
58	CRNN	1	1.1
59	CRNN	2	-1.07
60	CRNN	3	-0.227
61	ST6GALNAC3	1	-1.19
62	ST6GALNAC3	2	-0.903
63	ST6GALNAC3	3	1.8
64	GUCA1C	1	-0.213
65	GUCA1C	2	0.702
66	GUCA1C	3	-0.562
67	LRRC3B	1	-0.917
68	LRRC3B	2	-0.975
69	LRRC3B	3	0.483
70	EBF4	1	-0.424
71	EBF4	2	-0.262
72	EBF4	3	1.62
73	LOC727961 (retired record)	1	-1.14
74	LOC727961 (retired record)	2	4.56
75	LOC727961 (retired record)	3	-0.315
76	KANSL1L	1	-0.993
77	KANSL1L	2	-1.12
78	KANSL1L	3	-0.661
79	TRMT5	1	-0.994
80	TRMT5	2	0.011
81	TRMT5	3	3.08
82	ZNF559	1	-0.439
83	ZNF559	2	-0.621
84	ZNF559	3	-0.656
85	KIF18A	1	0.21
86	KIF18A	2	-0.274
87	KIF18A	3	-0.391
